Laboratory results published in the supplement of paper PMC12067093, “Discovery and optimisation of a covalent ligand for TRIM25 and its application to targeted protein ubiquitination” (Chemical Science, 2025).
Some of the results follow.

Protein sequences, listed by entry. Tags and fused reporters are not part of them. Lines headed by an entry give the natural chain unless they say otherwise; changes in a name come on top.
UniProt Q9H2W1: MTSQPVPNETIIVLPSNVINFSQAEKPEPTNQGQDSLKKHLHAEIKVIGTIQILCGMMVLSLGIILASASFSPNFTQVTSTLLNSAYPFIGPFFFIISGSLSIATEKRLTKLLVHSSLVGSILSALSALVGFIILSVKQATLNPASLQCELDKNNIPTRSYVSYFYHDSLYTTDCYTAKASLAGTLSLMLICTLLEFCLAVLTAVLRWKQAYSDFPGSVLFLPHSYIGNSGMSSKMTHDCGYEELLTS
UniProt P35579, whole entry, looked up: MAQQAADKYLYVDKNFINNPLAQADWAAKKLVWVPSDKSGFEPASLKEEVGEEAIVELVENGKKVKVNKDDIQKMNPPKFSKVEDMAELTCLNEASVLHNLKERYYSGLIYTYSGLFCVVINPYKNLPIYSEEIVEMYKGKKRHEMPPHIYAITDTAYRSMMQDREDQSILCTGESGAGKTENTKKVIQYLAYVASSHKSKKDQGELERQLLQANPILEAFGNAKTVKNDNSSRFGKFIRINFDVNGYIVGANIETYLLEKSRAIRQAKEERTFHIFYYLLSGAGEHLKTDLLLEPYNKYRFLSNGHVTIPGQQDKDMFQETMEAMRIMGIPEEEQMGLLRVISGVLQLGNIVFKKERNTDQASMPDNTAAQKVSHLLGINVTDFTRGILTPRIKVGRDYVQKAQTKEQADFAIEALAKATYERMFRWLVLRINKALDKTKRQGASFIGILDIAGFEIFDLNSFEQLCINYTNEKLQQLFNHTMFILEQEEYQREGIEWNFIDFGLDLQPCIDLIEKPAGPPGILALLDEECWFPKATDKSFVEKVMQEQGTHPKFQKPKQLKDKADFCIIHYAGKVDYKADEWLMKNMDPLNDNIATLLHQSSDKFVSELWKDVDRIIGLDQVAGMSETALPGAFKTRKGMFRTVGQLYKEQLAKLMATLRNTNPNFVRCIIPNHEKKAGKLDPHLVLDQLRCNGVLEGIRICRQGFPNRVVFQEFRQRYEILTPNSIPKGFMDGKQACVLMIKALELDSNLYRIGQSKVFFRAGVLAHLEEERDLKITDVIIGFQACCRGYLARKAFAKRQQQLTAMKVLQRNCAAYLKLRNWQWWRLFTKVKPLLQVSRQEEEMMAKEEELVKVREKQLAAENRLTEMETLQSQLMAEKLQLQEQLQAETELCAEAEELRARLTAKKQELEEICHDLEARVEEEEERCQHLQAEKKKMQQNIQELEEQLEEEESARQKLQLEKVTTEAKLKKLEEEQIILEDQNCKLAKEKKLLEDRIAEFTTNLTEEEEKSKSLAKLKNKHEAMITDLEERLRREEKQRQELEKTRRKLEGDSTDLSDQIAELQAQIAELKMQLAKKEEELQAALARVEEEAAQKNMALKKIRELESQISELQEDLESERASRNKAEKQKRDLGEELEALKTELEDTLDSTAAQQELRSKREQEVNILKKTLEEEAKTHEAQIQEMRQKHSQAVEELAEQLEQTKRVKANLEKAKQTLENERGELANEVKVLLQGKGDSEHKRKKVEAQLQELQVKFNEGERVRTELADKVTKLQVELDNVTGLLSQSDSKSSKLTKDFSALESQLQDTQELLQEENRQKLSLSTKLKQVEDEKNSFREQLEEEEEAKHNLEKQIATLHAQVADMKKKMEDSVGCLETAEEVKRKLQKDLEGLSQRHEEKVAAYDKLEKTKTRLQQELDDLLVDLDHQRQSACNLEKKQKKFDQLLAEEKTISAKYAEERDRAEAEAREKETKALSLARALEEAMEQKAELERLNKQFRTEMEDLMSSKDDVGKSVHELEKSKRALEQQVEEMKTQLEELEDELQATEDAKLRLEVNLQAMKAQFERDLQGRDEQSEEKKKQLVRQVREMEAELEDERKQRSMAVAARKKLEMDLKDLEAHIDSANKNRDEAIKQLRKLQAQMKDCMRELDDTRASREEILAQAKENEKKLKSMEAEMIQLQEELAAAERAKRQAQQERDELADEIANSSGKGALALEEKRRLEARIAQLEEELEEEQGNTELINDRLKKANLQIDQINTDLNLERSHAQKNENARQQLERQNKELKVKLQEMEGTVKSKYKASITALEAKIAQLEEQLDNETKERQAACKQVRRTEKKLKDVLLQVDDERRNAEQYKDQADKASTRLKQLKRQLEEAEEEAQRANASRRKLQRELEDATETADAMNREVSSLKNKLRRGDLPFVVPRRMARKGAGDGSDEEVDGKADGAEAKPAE
UniProt P11586, whole entry, looked up: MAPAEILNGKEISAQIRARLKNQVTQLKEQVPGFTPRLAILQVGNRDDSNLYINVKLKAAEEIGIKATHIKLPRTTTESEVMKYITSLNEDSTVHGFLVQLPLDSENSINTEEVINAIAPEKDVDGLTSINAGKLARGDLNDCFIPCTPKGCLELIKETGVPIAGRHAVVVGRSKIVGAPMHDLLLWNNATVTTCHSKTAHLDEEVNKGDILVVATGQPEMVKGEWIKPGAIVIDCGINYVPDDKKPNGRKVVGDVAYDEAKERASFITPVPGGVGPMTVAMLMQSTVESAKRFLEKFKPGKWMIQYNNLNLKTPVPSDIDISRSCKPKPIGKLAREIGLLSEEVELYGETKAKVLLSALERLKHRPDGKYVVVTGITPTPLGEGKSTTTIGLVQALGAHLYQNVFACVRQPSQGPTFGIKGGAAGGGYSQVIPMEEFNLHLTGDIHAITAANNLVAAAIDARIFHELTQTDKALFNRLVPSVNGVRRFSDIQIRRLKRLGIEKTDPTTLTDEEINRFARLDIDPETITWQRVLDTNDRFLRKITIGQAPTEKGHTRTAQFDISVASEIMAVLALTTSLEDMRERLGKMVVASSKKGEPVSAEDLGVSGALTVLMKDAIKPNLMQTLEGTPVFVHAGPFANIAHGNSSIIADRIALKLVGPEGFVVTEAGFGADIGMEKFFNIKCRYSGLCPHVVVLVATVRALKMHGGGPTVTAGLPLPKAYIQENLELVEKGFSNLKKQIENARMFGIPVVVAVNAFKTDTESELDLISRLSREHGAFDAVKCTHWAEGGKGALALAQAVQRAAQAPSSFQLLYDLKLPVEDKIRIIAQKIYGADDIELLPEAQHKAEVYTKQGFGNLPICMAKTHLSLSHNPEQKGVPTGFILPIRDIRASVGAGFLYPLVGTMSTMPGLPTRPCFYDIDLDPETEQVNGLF
UniProt P35580, whole entry, looked up: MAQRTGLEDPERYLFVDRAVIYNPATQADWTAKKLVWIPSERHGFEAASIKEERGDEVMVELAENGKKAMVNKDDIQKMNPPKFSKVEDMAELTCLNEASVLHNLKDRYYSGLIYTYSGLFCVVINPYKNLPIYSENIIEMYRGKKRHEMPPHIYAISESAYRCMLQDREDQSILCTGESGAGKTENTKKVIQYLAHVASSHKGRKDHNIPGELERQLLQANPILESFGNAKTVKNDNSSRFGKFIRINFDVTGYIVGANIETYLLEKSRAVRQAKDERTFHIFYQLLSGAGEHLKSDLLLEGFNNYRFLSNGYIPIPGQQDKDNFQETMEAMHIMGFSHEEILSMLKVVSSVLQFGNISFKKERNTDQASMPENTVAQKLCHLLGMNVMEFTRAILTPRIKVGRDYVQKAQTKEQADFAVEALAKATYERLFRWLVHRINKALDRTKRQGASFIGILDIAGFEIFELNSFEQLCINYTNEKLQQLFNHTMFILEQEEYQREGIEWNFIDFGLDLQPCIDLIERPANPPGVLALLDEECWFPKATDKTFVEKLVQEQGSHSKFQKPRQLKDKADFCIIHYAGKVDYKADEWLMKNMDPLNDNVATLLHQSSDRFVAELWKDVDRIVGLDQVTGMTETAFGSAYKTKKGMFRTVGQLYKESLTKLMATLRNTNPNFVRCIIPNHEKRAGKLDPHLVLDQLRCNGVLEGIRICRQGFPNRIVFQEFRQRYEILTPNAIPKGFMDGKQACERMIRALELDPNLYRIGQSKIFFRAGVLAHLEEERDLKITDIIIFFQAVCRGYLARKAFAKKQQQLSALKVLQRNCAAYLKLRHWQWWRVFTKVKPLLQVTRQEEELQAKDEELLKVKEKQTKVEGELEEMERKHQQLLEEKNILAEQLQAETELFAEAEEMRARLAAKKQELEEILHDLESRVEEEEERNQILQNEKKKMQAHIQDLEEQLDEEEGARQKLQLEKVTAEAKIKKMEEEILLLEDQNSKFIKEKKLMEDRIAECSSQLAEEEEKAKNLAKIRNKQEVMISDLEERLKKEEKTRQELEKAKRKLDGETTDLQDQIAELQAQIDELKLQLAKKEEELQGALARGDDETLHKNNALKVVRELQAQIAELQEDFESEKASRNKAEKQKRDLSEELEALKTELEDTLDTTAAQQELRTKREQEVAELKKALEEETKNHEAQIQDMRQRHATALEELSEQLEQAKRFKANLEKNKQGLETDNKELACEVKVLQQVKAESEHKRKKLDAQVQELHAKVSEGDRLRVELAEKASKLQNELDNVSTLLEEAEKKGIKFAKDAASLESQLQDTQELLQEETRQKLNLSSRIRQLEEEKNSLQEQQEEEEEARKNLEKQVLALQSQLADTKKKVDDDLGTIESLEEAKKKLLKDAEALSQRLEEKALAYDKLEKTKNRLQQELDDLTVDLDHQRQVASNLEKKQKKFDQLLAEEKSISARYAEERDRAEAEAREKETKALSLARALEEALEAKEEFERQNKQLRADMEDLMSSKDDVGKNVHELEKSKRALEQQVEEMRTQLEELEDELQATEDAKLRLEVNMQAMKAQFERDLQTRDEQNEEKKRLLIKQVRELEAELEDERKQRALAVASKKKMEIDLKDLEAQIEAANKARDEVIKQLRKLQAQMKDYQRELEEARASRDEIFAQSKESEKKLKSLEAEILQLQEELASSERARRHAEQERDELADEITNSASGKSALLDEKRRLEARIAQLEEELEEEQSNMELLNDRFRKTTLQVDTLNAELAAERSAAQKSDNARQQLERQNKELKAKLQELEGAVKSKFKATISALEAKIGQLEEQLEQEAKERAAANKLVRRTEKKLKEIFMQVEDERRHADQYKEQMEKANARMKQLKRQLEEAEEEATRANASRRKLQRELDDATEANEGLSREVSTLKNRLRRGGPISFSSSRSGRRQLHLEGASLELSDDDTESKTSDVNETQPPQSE
UniProt Q9Y217: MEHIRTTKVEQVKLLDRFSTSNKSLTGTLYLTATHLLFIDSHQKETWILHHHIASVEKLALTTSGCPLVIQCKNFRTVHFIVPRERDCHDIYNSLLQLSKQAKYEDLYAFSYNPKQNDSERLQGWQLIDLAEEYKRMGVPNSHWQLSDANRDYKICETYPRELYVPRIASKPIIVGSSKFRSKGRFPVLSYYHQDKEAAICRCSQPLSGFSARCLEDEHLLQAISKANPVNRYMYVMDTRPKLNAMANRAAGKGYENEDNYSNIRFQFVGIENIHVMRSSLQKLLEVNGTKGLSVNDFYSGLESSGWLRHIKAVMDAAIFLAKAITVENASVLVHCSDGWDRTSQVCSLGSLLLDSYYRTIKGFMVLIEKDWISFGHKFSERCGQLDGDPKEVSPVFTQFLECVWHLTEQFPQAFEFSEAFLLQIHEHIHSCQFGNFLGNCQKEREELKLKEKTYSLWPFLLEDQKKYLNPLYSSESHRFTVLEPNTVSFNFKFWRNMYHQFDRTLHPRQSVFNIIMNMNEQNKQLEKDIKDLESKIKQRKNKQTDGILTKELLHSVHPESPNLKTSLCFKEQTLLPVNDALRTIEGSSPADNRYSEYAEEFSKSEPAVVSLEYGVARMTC
UniProt Q13496: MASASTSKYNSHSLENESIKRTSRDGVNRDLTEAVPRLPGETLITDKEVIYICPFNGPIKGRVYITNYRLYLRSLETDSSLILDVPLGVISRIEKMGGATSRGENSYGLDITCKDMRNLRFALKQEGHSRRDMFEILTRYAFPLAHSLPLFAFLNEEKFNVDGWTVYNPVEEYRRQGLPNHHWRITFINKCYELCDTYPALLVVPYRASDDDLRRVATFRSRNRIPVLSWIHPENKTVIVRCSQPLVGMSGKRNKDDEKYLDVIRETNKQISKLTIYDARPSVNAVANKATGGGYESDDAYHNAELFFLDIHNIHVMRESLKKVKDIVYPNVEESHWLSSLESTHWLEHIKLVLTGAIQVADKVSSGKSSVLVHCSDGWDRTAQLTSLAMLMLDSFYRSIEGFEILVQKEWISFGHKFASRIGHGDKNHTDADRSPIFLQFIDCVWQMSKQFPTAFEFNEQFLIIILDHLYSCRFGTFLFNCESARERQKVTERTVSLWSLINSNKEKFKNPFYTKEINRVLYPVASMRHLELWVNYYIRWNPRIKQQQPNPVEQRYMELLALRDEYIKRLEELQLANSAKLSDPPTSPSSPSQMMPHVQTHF
UniProt P60660, whole entry, looked up: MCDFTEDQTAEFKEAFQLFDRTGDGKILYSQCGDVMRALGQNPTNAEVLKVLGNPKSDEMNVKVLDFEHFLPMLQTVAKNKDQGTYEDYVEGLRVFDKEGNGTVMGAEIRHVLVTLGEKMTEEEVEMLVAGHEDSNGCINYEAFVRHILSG

compound: Cc1cc(ccc1-c1ccccc1)C(=O)N1CCCN(CC1)C(=O)CCl [compound 10]; test: probe-labelled cysteine peptide fold change vs DMSO (competition) (log2 fold change); higher = less target engagement (more negative = stronger competition); conditions: 10 µM; THP-1; incubation time: 4 h
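Also: competitive profiling in live THP-1 cells: cysteine peptides tagged with an iodoacetamide desthiobiotin (IA-DTB) probe, intensity after compound treatment relative to DMSO-treated cells.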

Going from “MTREX_P42285_110_VQSVETVEGCTHEVALPAEEDYLPLKPR (UniProt P42285)” to “MTHFD1L_Q6UB35_198_GDAHECFVSPVAK (UniProt Q6UB35)”, the “probe-labelled cysteine peptide fold change” value rises from -0.0679 to -0.0405.

First: MS4A6A_Q9H2W1_240_MTHDCGYEELLTS (UniProt Q9H2W1)
Second: MYH9_P35579_917_KQELEEICHDLEARVEEEEER (UniProt P35579)
The “probe-labelled cysteine peptide fold change” value of the first is lower: -0.428 for the first, -0.258 for the second.

Going from “MTMR10_Q9NXD2_104_NLLLGEHDVPLTCIEQIVTVNDHK (UniProt Q9NXD2)” to “MSH6_P52701_1129_AYCVLVTGPNMGGK (UniProt P52701)”, the “probe-labelled cysteine peptide fold change” value falls from -0.0175 to -0.166.

First: MTHFD1_P11586_147_GDLNDCFIPCTPK (UniProt P11586)
Second: MYH10_P35580_1011_IAECSSQLAEEEEK (UniProt P35580)
The “probe-labelled cysteine peptide fold change” value of the first is higher: -0.0576 for the first, -0.11 for the second.

Compared with “MYBBP1A_Q9BQG0_305_MQFWPASYLCFR (UniProt Q9BQG0)”, “MTRF1_O75570_200_TTGGDICQQFTR (UniProt O75570)” is lower in “probe-labelled cysteine peptide fold change” value: -0.0172 for the first, -0.205 for the second.

Compared with “MTMR6_Q9Y217_214_CLEDEHLLQAISK (UniProt Q9Y217)”, “MTMR1_Q13613_258_INSNYEFCDTYPAIIVVPTSVK (UniProt Q13613)” is higher in “probe-labelled cysteine peptide fold change” value: -0.103 for the first, -0.0841 for the second.

First: MTM1_Q13496_53_EVIYICPFNGPIK (UniProt Q13496)
Second: MSH2_P43246_843_HVIECAK (UniProt P43246)
The “probe-labelled cysteine peptide fold change” value of the first is lower: -0.0979 for the first, -0.061 for the second.

First: MYL6_P60660-2_138_MTEEEVEMLVAGHEDSNGCINYEELVR (UniProt P60660)
Second: MYCBP2_O75592_3263_QAHPGCGR (UniProt O75592)
The “probe-labelled cysteine peptide fold change” value of the first is lower: 0.0621 for the first, 0.0855 for the second.
